For at least one entry, the source does not settle the construct or the ends of the probe. Weaker means in comparison with the reference protein, sequence or condition of that experiment.
Target: biotinylated human glucagon (Homo sapiens) (UniProt P01275)
Assay: SPR
Conditions: synthetic protein, mirror-image nucleic acid

By UniProt entry, the sequences of proteins in these tests, tags left out. Residues count along the entry.
UniProt P01275, 53-81: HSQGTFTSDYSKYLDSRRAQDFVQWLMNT

CAGACGUGUGUGGGUAGAUGCACCUGCGAUUCGCUAAAAAGUGCCACACGUCUG [NOX-G11-D27]
binding result (L-RNA, 2'-deoxy at 27, improved vs parent, 37 C, synthetic backbone): binds

ACTCGAGAGGAAAGGTUGGTAAAGGTTCGGTTGGATTCACTCGAGT [259-H6-002-R17]
binding result (L-DNA, rU at 17, reduced or lost vs parent, 37 C, synthetic backbone): binds more weakly

ACTCGAGAGGAAAGGTTGGTAAAGGTTCGGTTGGATTCACTCGAGT [259-H6-002-R43]
binding result (L-DNA, ribo at 43, reduced or lost vs parent, 37 C, synthetic backbone): binds more weakly

CAGACGUGUGUGGGUAGAUGCACCUGCGAUUCGCUAAAAAGUGCCACACGUCTG [NOX-G11-D53]
binding result (L-RNA, dT at 53, improved vs parent, 37 C, synthetic backbone): binds

CAGACGUGUGUGGGUAGAUGCACCUGCGAUUCGCUAAAAAGUGCCACACGUCUG [NOX-G11-D14]
binding result (L-RNA, 2'-deoxy at 14, improved vs parent, 37 C, synthetic backbone): binds

ACTCGAGAGGAAAGGTTGGTAAAGGTTCGGTTGGATTCACTCGAGT [259-H6-002-R24]
binding result (L-DNA, rG at 24, variant of 259-H6-002): binds

ACTCGAGAGGAAAGGTTGGTAAAGGTTCGGTTGGATTCACTCGAGT [259-H6-002-R35]
binding result (L-DNA, ribo at 35, reduced or lost vs parent, 37 C, synthetic backbone): binds more weakly

CAGACGUGUGUGGGTAGAUGCACCUGCGAUUCGCUAAAAAGUGCCACACGUCUG [NOX-G11-D15]
binding result (L-RNA, dT at 15, improved vs parent, 37 C, synthetic backbone): binds

CAGACGUGUGUGGGUAGAUGCACCUGCGAUUCGCUAAAAAGUGCCACACGUCUG [NOX-G11-D44]
binding result (L-RNA, 2'-deoxy at 44, improved vs parent, 37 C, synthetic backbone): binds

ACTCGAGAGGAAAGGTTGGTAAAGGTTCGGTTGGATTCACTCGAGT [259-H6-002-R14]
binding result (L-DNA, ribo at 14, reduced or lost vs parent, 37 C, synthetic backbone): binds more weakly

ACTCGAGAGGAAAGGTTGGTAAAGGTTCGGTTGGATTCACTCGAGT [259-H6-002-R19]
binding result (L-DNA, ribo at 19, reduced or lost vs parent, 37 C, synthetic backbone): binds more weakly

CAGACGUGUGUGGGUAGAUGCACCUGCGAUUCGCUAAAAAGUGCCACACGUCUG [NOX-G11-D17]
binding result (L-RNA, 2'-deoxy at 17, unchanged vs parent, 37 C, synthetic backbone): binds

CAGACGUGUGUGGGUAGATGCACCUGCGAUUCGCUAAAAAGUGCCACACGUCUG [NOX-G11-D19]
binding result (L-RNA, dT at 19, improved vs parent, among best, variant of NOX-G11stabi2): binds

CAGACGUGUGUGGGUAGAUGCACCUGCGAUUCGCUAAAAAGUGCCACACGUCUG [NOX-G11-D32]
binding result (L-RNA, 2'-deoxy at 32, improved vs parent, 37 C, synthetic backbone): binds

ACTCGAGAGGAAAGGTTGGTAAAGGTTCGGTTGGATTCACTCGAGT [259-H6-002-R15]
binding result (L-DNA, ribo at 15, reduced or lost vs parent, 37 C, synthetic backbone): binds more weakly

ACTCGAGAGGAAAGGTTGGTAAAGGTTCGGTTGGATTCACTCGAGT [259-H6-002-R02]
binding result (L-DNA, rC at 2, reduced or lost binding vs parent, variant of 259-H6-002): binds more weakly

ACTCGAGAGGAAAGGTTGGTAAAGGTTCGGTTGGATTCACTCGAGT [259-H6-002-R28]
binding result (L-DNA, ribo at 28, reduced or lost vs parent, 37 C, synthetic backbone): binds more weakly

ACTCGAGAGGAAAGGTTGGTAAAGGTTCGGTTGGATUCACTCGAGT [259-H6-002-R37]
binding result (L-DNA, rU at 37, reduced or lost vs parent, 37 C, synthetic backbone): binds more weakly

CAGACGUGUGUGGGUAGAUGCACCUGCGAUUCGCUAAAAAGUGCCACACGUCUG [NOX-G11-D05]
binding result (L-RNA, 2'-deoxy at 5, improved vs parent, 37 C, synthetic backbone): binds

ACTCGAGAGGAAAGGTTGGTAAAGGTTCGGTTGGATTCACTCGAGT [259-H6-002-R10]
binding result (L-DNA, rG at 10, reduced or lost binding vs parent, variant of 259-H6-002): binds more weakly

ACTCGAGAGGAAAGGTTGGTAAAGGTTCGGTTGGATTCACTCGAGT [259-H6-002-R33]
binding result (L-DNA, ribo at 33, reduced or lost vs parent, 37 C, synthetic backbone): binds more weakly

ACTCGAGAGGAAAGGTTGGTAAAGGTUCGGTTGGATTCACTCGAGT [259-H6-002-R27]
binding result (L-DNA, rU at 27, reduced or lost vs parent, 37 C, synthetic backbone): binds more weakly

CAGACGUGUGUGGGUAGAUGCACCUGCGAUUCGCUAAAAAGUGCCACACGUCUG [NOX-G11-D24]
binding result (L-RNA, 2'-deoxy at 24, improved vs parent, 37 C, synthetic backbone): binds

CAGACGUGUGUGGGUAGAUGCACCUGCGAUUCGCUAAAAAGUGCCACACGUCUG [NOX-G11-D41]
binding result (L-RNA, dG at 41, reduced or lost binding vs parent, variant of NOX-G11stabi2): binds more weakly

CAGACGUGUGUGGGUAGAUGCACCUGCGAUUCGCUAAAAAGUGCCACACGUCUG [NOX-G11-D01]
binding result (L-RNA, 2'-deoxy at 1, improved vs parent, 37 C, synthetic backbone): binds

CAGACGUGUGUGGGUAGAUGCACCUGCGAUUCGCUAAAAAGUGCCACACGUCUG [NOX-G11-D38]
binding result (L-RNA, 2'-deoxy at 38, improved vs parent, 37 C, synthetic backbone): binds

ACTCGAGAGGAAAGGTTGGTAAAGGTTCGGTTGGAUTCACTCGAGT [259-H6-002-R13-R36]
binding result (L-DNA, rA at 13, rU at 36, better than single substitutions, variant of 259-H6-002): binds

ACTCGAGAGGAAAGGTTGGTAAAGGTTCGGTTGGATTCACTCGAGT [259-H6-002-R12]
binding result (L-DNA, rA at 12, reduced or lost binding vs parent, variant of 259-H6-002): binds more weakly

CAGACGUGUGUGGGUAGAUGCACCUGCGAUUCGCUAAAAAGUGCCACACGUCUG [NOX-G11-D39]
binding result (L-RNA, 2'-deoxy at 39, unchanged vs parent, 37 C, synthetic backbone): binds

CAGACGUGUGUGGGUAGAUGCACCUGCGAUUCGCUAAAAAGUGCCACACGUCUG [NOX-G11-D23]
binding result (L-RNA, 2'-deoxy at 23, improved vs parent, 37 C, synthetic backbone): binds

CAGACGUGUGUGGGUAGAUGCACCUGCGAUUCGCUAAAAAGUGCCACACGUCUG [NOX-G11-D40]
binding result (L-RNA, 2'-deoxy at 40, unchanged vs parent, 37 C, synthetic backbone): binds

ACTCGAGAGGAAAGGTTGGTAAAGGTTCGGTTGGATTCACTCGAGT [259-H6-002-R34]
binding result (L-DNA, ribo at 34, reduced or lost vs parent, 37 C, synthetic backbone): binds more weakly

ACTCGAGAGGAAAGGUTGGTAAAGGTTCGGTTGGATTCACTCGAGT [259-H6-002-R16]
binding result (L-DNA, rU at 16, reduced or lost vs parent, 37 C, synthetic backbone): binds more weakly

CAGACGUGUGUGGGUAGAUGCACCUGCGAUUCGCUAAAAAGUGCCACACGUCUG [NOX-G11-D33]
binding result (L-RNA, 2'-deoxy at 33, unchanged vs parent, 37 C, synthetic backbone): binds

CAGACGUGUGUGGGUAGAUGCACCUGCGAUUCGCUAAAAAGUGCCACACGUCUG [NOX-G11-D28]
binding result (L-RNA, 2'-deoxy at 28, improved vs parent, 37 C, synthetic backbone): binds

ACTCGAGAGGAAAGGTTGGTAAAGGTTCGGTTGGATTCACTCGAGT [259-H6-002-R13-R24]
binding result (L-DNA, rA at 13, rG at 24, better than single substitutions, variant of 259-H6-002): binds

ACTCGAGAGGAAAGGTTGGTAAAGGTTCGGTTGGATTCACTCGAGT [259-H6-002-R22]
binding result (L-DNA, ribo at 22, improved vs parent, 37 C, synthetic backbone): binds

ACTCGAGAGGAAAGGTTGGTAAAGGTTCGGTTGGATTCACTCGAGT [259-H6-002-R29]
binding result (L-DNA, ribo at 29, reduced or lost vs parent, 37 C, synthetic backbone): binds more weakly

ACTCGAGAGGAAAGGTTGGTAAAGGTTCGGTTGGATTCACTCGAGT [259-H6-002-R30]
binding result (L-DNA, rG at 30, variant of 259-H6-002): binds

CAGACGUGUGUGGGUAGAUGCACCUGCGAUUCGCUAAAAAGUGCCACACGUCUG [NOX-G11-D26]
binding result (L-RNA, 2'-deoxy at 26, improved vs parent, 37 C, synthetic backbone): binds

ACTCGAGAGGAAAGGTTGGTAAAGGTTCGGTTGGATTCACTCGAGT [259-H6-002-R05]
binding result (L-DNA, rG at 5, reduced or lost binding vs parent, variant of 259-H6-002): binds more weakly

ACTCGAGAGGAAAGGTTGGTAAAGGTTCGGTTGGATTCACTCGAGT [259-H6-002-R18]
binding result (L-DNA, ribo at 18, reduced or lost vs parent, 37 C, synthetic backbone): binds more weakly

CAGACGUGUGUGGGUAGAUGCACCUGCGAUUCGCUAAAAAGUGCCACACGUCUG [NOX-G11-D45]
binding result (L-RNA, 2'-deoxy at 45, unchanged vs parent, 37 C, synthetic backbone): binds

CAGACGUGUGUGGGUAGAUGCACCUGCGAUUCGCUAAAAAGUGCCACACGUCUG [NOX-G11-D20]
binding result (L-RNA, 2'-deoxy at 20, improved vs parent, 37 C, synthetic backbone): binds

CAGACGUGUGUGGGUAGAUGCACCUGCGAUUCGCUAAAAAGUGCCACACGUCUG [NOX-G11-D50]
binding result (L-RNA, 2'-deoxy at 50, unchanged vs parent, 37 C, synthetic backbone): binds

CAGACGUGUGUGGGUAGAUGCACCUGCGAUUCGCUAAAAAGUGCCACACGUCUG [NOX-G11-D16]
binding result (L-RNA, dA at 16, improved vs parent, among best, variant of NOX-G11stabi2): binds

ACTCGAGAGGAAAGGTTGGTAAAGGTTCGGTTGGATTCACTCGAGT [259-H6-002-R40]
binding result (L-DNA, ribo at 40, reduced or lost vs parent, 37 C, synthetic backbone): binds more weakly

— US20140350088
